Measurements from patent EP0469084B1 (MOUNT SINAI SCHOOL OF MEDICINE OF THE CITY UNIVERSITY OF …, priority 1989, dated 1995).
*: point of attachment. Mts = Cc1cc(C)c(S(=O)(=O)*)c(C)c1; Boc = CC(C)(C)OC(=O)*; Bn = c1ccc(C*)cc1; NHNH2 = NN*

Assay: general procedure: solution-phase peptide synthesis; azide fragment condensation; p-nitrophenyl active esters; DCC/HOBt

Boc-Asn-Tyr(Bzl)-Cys(PMB)-Asn·OBzl
step yield (coupling step): 64%

Boc-Glu(OBzl)-Asn-Tyr(Bzl)-Cys(PMB)-Asn·OBzl
step yield (coupling step): 81%

Boc-Gly-Val-Cys(PMB)-Ser(Bzl)-Leu-Trp(Mts)-Gln-Leu-Glu(OBzl)-Asn-Tyr(Bzl)-Cys(PMB)-Asn·OBzl
step yield (coupling step): 82%

Boc-Leu-Trp(Mts)-Gln-Leu·OMe
step yield (coupling step): 71%

Boc-S(Bn)LW(Mts)QL-NHNH2
step yield (late stage modification step): 94%

Boc-Ser(Bzl)-Leu-Trp(Mts)-Gln-Leu-Glu(OBzl)-Asn-Tyr(Bzl)-Cys(PMB)-Asn·OBzl
step yield (coupling step): 38%

Boc-Ser(Bzl)-Leu-Trp(Mts)-Gln-Leu·OMe
step yield (coupling step): 85%

Z-Gly-Ile-Val-Glu(OBu^t)-Gln-Cys(PMB)-Cys(PMB)-Ala-Gly-Val-Cys(PMB)-Ser(Bzl)-Leu-Trp(Mts)-Gln-Leu-Glu(OBzl)-Asn-Tyr(Bzl)-Cys(PMB)-Asn·OBzl
step yield (coupling step): 76%
